Source: paper PMC9583501
Results are given in words; binding and its absence hold for the method and conditions named. In cells and extracts the contact can be indirect. Some results given as binding are weak or reduced against the parent protein; the word gives no strength.

Amino acid sequences for entries named in this document (tags omitted).
UniProt O15379: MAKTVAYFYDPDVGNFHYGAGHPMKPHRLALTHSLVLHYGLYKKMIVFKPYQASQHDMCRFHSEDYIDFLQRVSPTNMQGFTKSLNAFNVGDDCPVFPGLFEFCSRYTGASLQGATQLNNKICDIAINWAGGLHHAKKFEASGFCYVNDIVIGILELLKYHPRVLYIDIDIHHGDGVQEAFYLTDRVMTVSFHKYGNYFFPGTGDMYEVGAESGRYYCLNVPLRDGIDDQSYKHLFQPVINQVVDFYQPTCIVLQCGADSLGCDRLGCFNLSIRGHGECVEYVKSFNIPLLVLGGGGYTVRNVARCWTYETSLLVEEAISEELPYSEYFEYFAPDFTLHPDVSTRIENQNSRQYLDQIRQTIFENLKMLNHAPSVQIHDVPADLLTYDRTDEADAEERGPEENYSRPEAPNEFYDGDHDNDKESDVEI

Molecular target: T1, programmed cell death 5 (human (endogenous in A498)) (UniProt O14737)
T1 sequence: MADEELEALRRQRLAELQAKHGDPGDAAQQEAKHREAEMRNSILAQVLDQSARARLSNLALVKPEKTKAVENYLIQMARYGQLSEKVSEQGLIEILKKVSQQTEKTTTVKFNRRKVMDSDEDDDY
Assay: co-IP; endogenous proteins; A498 cells lysed in NP-40 buffer (25 mM Tris-HCl pH 7.4, 150 mM NaCl, 1 mM EDTA, 5% glycerol, 1% NP-40); extract incubated overnight at 4 °C with protein G beads coupled to rabbit IgG, PDCD5 antibody or HDAC3 antibody; Western blot

histone deacetylase 3 (from UniProt O15379 1-428)
binding: binds
